Data from US7605134B2, “4″-Deoxy-4″-(s)-amino avermectin derivatives” (Merial Limited, priority 2001, dated 2009).
Some entries share one result that the patent states for a list of compounds. At least one structure is not confirmed: it was looked up by name or label, or the drawing left a doubt.

Experiments:
Format in all cases: in vivo
[1] = test system: Spodoptera littoralis; assay: Systemic action against Spodoptera littoralis (maize seedlings); settings: maize seedlings laid in test solution 6 days; L1 larvae on cut leaves; 4 days later
[2] = test system: Plutella xylostella; assay: Action against Plutella xylostella caterpillars (sprayed cabbage plants); settings: 12.5 ppm active ingredient spray on young cabbage plants; first-stage caterpillars; 3 days
[3] = test system: Tetranychus urticae; assay: Action against Tetranychus urticae (sprayed bean plants); settings: 12.5 ppm active ingredient spray on young bean plants; mixed population; 6 days at 25° C.
[4] = test system: Spodoptera littoralis; assay: Action against Spodoptera littoralis (sprayed soybean plants); settings: 12.5 ppm active ingredient spray on young soybean plants; first-stage caterpillars; 3 days
[5] = test system: Heliothis virescens; assay: Action against Heliothis virescens (eggs on filter paper); settings: 0.8 ml test solution on filter paper with 0 to 24 hours old eggs; evaluation after 6 days
[6] = test system: Diabrotica balteata; assay: Action against Diabrotica balteata (sprayed maize seedlings); settings: 12.5 ppm active ingredient spray on maize seedlings; second-stage larvae; 6 days

4″-deoxy-4″-(S)—N-ethyl-N-methyl-avermectin B1 [A.5]
more than 90%: percentage reduction in population (% activity) [1] | percentage reduction in population and in feeding damage (% activity) [2] | percentage reduction in population (% activity) [3]

CCC(C)C1OC2(C=CC1C)CC1CC(CC=C(C)C(OC3CC(OC)C(OC4CC(OC)C(N=[N+]=[N-])C(C)O4)C(C)O3)C(C)C=CC=C3COC4C(O)C(C)=CC(C(=O)O1)C34O)O2 [A.2, 4″-deoxy-4″-(S)-azido-avermectin B1]
more than 90%: percentage reduction in population and in feeding damage (% activity) [4] | percentage reduction in population (% activity) [5] | percentage reduction in population and in feeding damage (% activity) [2] | percentage reduction in population (% activity) [6] | percentage reduction in population (% activity) [3]

CCC(C)C1OC2(C=CC1C)CC1CC(CC=C(C)C(OC3CC(OC)C(OC4CC(OC)C(NC)C(C)O4)C(C)O3)C(C)C=CC=C3COC4C(O)C(C)=CC(C(=O)O1)C34O)O2 [A.9, 4″-deoxy-4″-(S)-methylamino-avermectin B1]
more than 90%: percentage reduction in population and in feeding damage (% activity) [4] | percentage reduction in population (% activity) [1] | percentage reduction in population and in feeding damage (% activity) [2] | percentage reduction in population (% activity) [6] | percentage reduction in population (% activity) [3]

C=CCN(C)C1C(C)OC(OC2C(C)OC(OC3C(C)=CCC4CC(CC5(C=CC(C)C(C(C)CC)O5)O4)OC(=O)C4C=C(C)C(O)C5OCC(=CC=CC3C)C45O)CC2OC)CC1OC [A.10, 4″-deoxy-4″-(S)—N-2-propenyl-N-methylamino-avermectin B1]
more than 90%: percentage reduction in population and in feeding damage (% activity) [4] | percentage reduction in population (% activity) [1] | percentage reduction in population and in feeding damage (% activity) [2] | percentage reduction in population (% activity) [6] | percentage reduction in population (% activity) [3]

CCC(C)C1OC2(C=CC1C)CC1CC(CC=C(C)C(OC3CC(OC)C(OC4CC(OC)C(N)C(C)O4)C(C)O3)C(C)C=CC=C3COC4C(O[Si](C)(C)C(C)(C)C)C(C)=CC(C(=O)O1)C34O)O2 [A.12, 4″-deoxy-4″-(S)-amino-5-OTBDMS-avermectin B1]
more than 90%: percentage reduction in population and in feeding damage (% activity) [4] | percentage reduction in population and in feeding damage (% activity) [2]

CCC(C)C1OC2(C=CC1C)CC1CC(CC=C(C)C(OC3CC(OC)C(OC4CC(OC)C(N)C(C)O4)C(C)O3)C(C)C=CC=C3COC4C(O)C(C)=CC(C(=O)O1)C34O)O2 [A.13, 4″-deoxy-4″-(S)-amino-avermectin B1]
more than 90%: percentage reduction in population and in feeding damage (% activity) [4] | percentage reduction in population (% activity) [1] | percentage reduction in population and in feeding damage (% activity) [2] | percentage reduction in population (% activity) [6] | percentage reduction in population (% activity) [3]

CCC(C)C1OC2(C=CC1C)CC1CC(CC=C(C)C(OC3CC(OC)C(OC4CC(OC)C(N(C)C)C(C)O4)C(C)O3)C(C)C=CC=C3COC4C(O)C(C)=CC(C(=O)O1)C34O)O2 [A.14, 4″-deoxy-4″-(S)—N,N-dimethylamino-avermectin B1]
more than 90%: percentage reduction in population and in feeding damage (% activity) [4] | percentage reduction in population (% activity) [1] | percentage reduction in population (% activity) [5] | percentage reduction in population and in feeding damage (% activity) [2] | percentage reduction in population (% activity) [6] | percentage reduction in population (% activity) [3]
